Record: PubChem BioAssay AID1259283 (Sanger Institute, 2017)
Test: 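Kinome-wide siRNA search for kinases acting with BYL719, cetuximab or trametinib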 (primary screen). Cell system: HT115 colorectal cancer cells. Knock-down reagent: siRNA pool against human genes. Conditions: anchor drug given one day after siRNA: BYL719 at 1 µM, cetuximab at 5 µg/ml, trametinib at 10 nM, or DMSO vehicle alone. Measured: 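Viability normalised to non-targeting pool #2 wells and averaged over replicates, robust z-score against control wells, and a synergy score for each of three drugs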. Reading the numbers: robust z-score, knock-down alone: higher = more viable cells after knock-down; viability, DMSO vs non-targeting control: higher = more viable cells; synergy score with BYL719 and synergy score with cetuximab: higher = stronger synergy with drug (synthetic lethal). Hit rule: 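a gene counts as essential when its robust z-score with knock-down alone is below -3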. Calls: active = essential (z below -3, no drug); inactive = no change without drug.
The deposit covers 794 reagents; shown is a part drawn at random. Over the whole deposit, 14 (1.8%) were called active. 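Calls reflect only viability loss without drug; drug synergy does not enter the call.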 Viability is capped at 1. Not all columns of the deposit are shown. Reagent sequences are not shown. Not given: the amount of reagent, the time to read-out.

The opening 5 entries, ahead of the listing:
| gene | robust z-score, knock-down alone | viability, DMSO vs non-targeting control (fraction of control) | synergy score with BYL719 | synergy score with cetuximab | Call |
| --- | --- | --- | --- | --- | --- |
| INSRR (insulin receptor related receptor) | 0.789 | 1 | -0.0224 | 0.00323 | inactive |
| SF3B1 (splicing factor 3b subunit 1) | -1.67 | 0.773 | 0.0148 | 0.151 | inactive |
| COQ8B (coenzyme Q8B) | 0.789 | 1 | -0.0208 | 0.0828 | inactive |
| RIPK3 (receptor interacting serine/threonine kinase 3) | 0.789 | 1 | 0.104 | 0.0755 | inactive |
| CLSPN (claspin) | 0.789 | 1 | 0.0372 | 0.112 | inactive |

The list itself, repeating the preview:
| gene | robust z-score, knock-down alone | viability, DMSO vs non-targeting control (fraction of control) | synergy score with BYL719 | synergy score with cetuximab | Call |
| --- | --- | --- | --- | --- | --- |
| INSRR (insulin receptor related receptor) | 0.789 | 1 | -0.0224 | 0.00323 | inactive |
| SF3B1 (splicing factor 3b subunit 1) | -1.67 | 0.773 | 0.0148 | 0.151 | inactive |
| COQ8B (coenzyme Q8B) | 0.789 | 1 | -0.0208 | 0.0828 | inactive |
| RIPK3 (receptor interacting serine/threonine kinase 3) | 0.789 | 1 | 0.104 | 0.0755 | inactive |
| CLSPN (claspin) | 0.789 | 1 | 0.0372 | 0.112 | inactive |
| RAD21 (RAD21 cohesin complex component) | -0.424 | 0.888 | -0.00321 | 0.0354 | inactive |
| PIK3C2A | -3.49 | 0.604 | -0.0879 | 0.0945 | active |
| GK (glycerol kinase) | 0.789 | 1 | -0.0134 | 0.207 | inactive |
| PRKACG (protein kinase cAMP-activated catalytic subunit gamma) | 0.656 | 0.988 | 0.0049 | 0.105 | inactive |
| PTK2B (protein tyrosine kinase 2 beta) | 0.00334 | 0.927 | 0.1 | 0.0654 | inactive |
| PCK2 (phosphoenolpyruvate carboxykinase 2, mitochondrial) | 0.789 | 1 | -0.0224 | 0.0509 | inactive |
| TSSK1B (testis specific serine kinase 1B) | -0.0722 | 0.92 | -0.0843 | 0.0443 | inactive |
| FASTK (Fas activated serine/threonine kinase) | -0.441 | 0.886 | -0.0597 | 0.0154 | inactive |
| WNK3 (WNK lysine deficient protein kinase 3) | -0.696 | 0.863 | -0.0047 | -0.0335 | inactive |
| HK2 (hexokinase 2) | -0.488 | 0.882 | 0.0315 | 0.0914 | inactive |
| PRKAR2A | -0.259 | 0.903 | -0.0276 | 0.0368 | inactive |
| SIK2 (salt inducible kinase 2) | -1.05 | 0.83 | -0.0344 | -0.00885 | inactive |
| PFKFB2 (6-phosphofructo-2-kinase/fructose-2,6-biphosphatase 2) | 0.556 | 0.979 | 0.0482 | 0.13 | inactive |
| CMPK1 (cytidine/uridine monophosphate kinase 1) | 0.789 | 1 | 0.0968 | 0.0737 | inactive |
| NTRK1 (neurotrophic receptor tyrosine kinase 1) | -2.1 | 0.733 | 0.0019 | 0.143 | inactive |
| CAMK2D (calcium/calmodulin dependent protein kinase II delta) | 0.789 | 1 | -0.00155 | -0.0435 | inactive |
| EPHA3 (EPH receptor A3) | -0.55 | 0.876 | -0.0637 | -0.0208 | inactive |
| PTPRU (protein tyrosine phosphatase receptor type U) | -1.62 | 0.777 | 0.104 | -0.0572 | inactive |
| TAF1 (TATA-box binding protein associated factor 1) | -1.43 | 0.795 | -0.167 | -0.166 | inactive |
| CDK2 (cyclin dependent kinase 2) | 0.789 | 1 | -0.0224 | 0.0527 | inactive |
| STK36 (serine/threonine kinase 36) | -0.0169 | 0.926 | -0.0457 | 0.15 | inactive |
| HASPIN (histone H3 associated protein kinase) | 0.714 | 0.993 | 0.125 | 0.232 | inactive |
| BCOR (BCL6 corepressor) | 0.33 | 0.958 | 0.116 | 0.112 | inactive |
| NEK2 (NIMA related kinase 2) | 0.622 | 0.985 | -0.000545 | 0.164 | inactive |
| GALK2 (galactokinase 2) | -1.66 | 0.773 | -0.192 | -0.111 | inactive |
| NEK9 (NIMA related kinase 9) | -0.389 | 0.891 | 0.0828 | 0.0329 | inactive |
| STKLD1 (serine/threonine kinase like domain containing 1) | 0.0842 | 0.935 | 0.0807 | 0.124 | inactive |
| PTEN (phosphatase and tensin homolog) | -0.52 | 0.879 | -0.0471 | 0.0186 | inactive |
| UCK1 (uridine-cytidine kinase 1) | 0.789 | 1 | -0.0224 | -0.023 | inactive |
| CDKL4 (cyclin dependent kinase like 4) | -1.76 | 0.764 | 0.0436 | 0.0473 | inactive |
| CSNK1G2 (casein kinase 1 gamma 2) | 0.789 | 1 | 0.0381 | 0.163 | inactive |
| PSKH2 (protein serine kinase H2) | -0.89 | 0.845 | 0.0264 | 0.14 | inactive |
| DGKG (diacylglycerol kinase gamma) | -1.53 | 0.785 | -0.216 | -0.203 | inactive |
| CHKB (choline kinase beta) | 0.651 | 0.987 | -0.0348 | 0.0837 | inactive |
| MATK (megakaryocyte-associated tyrosine kinase) | 0.627 | 0.985 | -0.037 | 0.0605 | inactive |
| AURKA (aurora kinase A) | -2.78 | 0.67 | 0.173 | 0.129 | inactive |
| DCLK2 (doublecortin like kinase 2) | 0.789 | 1 | 0.0806 | 0.141 | inactive |
| MAPK3 (mitogen-activated protein kinase 3) | 0.789 | 1 | -0.0224 | 0.159 | inactive |
| FGFR3 (fibroblast growth factor receptor 3) | 0.789 | 1 | 0.125 | 0.172 | inactive |
| PTK7 (protein tyrosine kinase 7 (inactive)) | -1.63 | 0.776 | 0.0456 | 0.0649 | inactive |
| NME7 (NME/NM23 family member 7) | 0.789 | 1 | -0.0224 | 0.0816 | inactive |
| CSNK1A1 (casein kinase 1 alpha 1) | 0.599 | 0.982 | 0.0676 | 0.0759 | inactive |
| MAGI2 | 0.498 | 0.973 | -0.0487 | -0.0593 | inactive |
| CAD | 0.789 | 1 | 0.00706 | -0.0355 | inactive |
| ULK2 (unc-51 like autophagy activating kinase 2) | -0.367 | 0.893 | 0.0929 | 0.0501 | inactive |
